# Test results published in publication doi:10.1101/326512.
# No constants are given. Whether binding was seen depends on the method and setting. In cells and extracts the contact can be indirect. Sequences can lack the tags named with a protein.
# Biological target: T1, NRROS^nFlag overexpressed in HEK293T cells (mouse) (UniProt Q8BMT4)
# T1 sequence: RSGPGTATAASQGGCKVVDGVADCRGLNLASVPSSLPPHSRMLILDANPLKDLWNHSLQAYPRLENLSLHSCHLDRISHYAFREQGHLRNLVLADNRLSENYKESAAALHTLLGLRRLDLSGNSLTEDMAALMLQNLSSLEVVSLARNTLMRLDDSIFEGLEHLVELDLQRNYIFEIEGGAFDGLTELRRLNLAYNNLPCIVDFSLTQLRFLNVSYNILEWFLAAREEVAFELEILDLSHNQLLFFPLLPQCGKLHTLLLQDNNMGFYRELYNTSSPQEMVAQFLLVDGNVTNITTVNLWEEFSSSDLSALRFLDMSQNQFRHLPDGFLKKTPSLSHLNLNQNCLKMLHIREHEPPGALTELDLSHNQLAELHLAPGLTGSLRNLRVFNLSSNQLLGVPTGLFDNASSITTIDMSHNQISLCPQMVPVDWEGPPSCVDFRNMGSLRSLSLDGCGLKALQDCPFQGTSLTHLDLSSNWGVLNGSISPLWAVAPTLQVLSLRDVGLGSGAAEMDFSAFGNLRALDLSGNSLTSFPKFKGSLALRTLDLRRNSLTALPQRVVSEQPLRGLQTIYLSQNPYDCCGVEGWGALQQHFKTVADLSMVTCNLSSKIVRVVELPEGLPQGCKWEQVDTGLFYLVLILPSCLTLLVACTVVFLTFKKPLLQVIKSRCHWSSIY
# Assay: co-IP
row,binding,Substance
1,no binding,PDI (HEK293T) (human (endogenous in HEK293T))
2,no binding,HSP70 (HEK293T) (human (endogenous in HEK293T))
